Data from patent US10653687B2, “Methods and pharmaceutical compostions for treating rhabdomyolysis” (INSERM (INSTITUT NATIONAL DE LA SANTE ET DE LA RECHERCHE …, priority 2015, dated 2020).
For at least one compound, name, drawing or mass did not settle the structure.

Tested on: myoblasts
Assay: Autophagy induction in myoblasts: LC3-II level
Assay type: cell-based, human
Conditions: control myoblasts

SMILES: CO[C@H]1C[C@@H]2CC[C@@H](C)[C@@](O)(O2)C(=O)C(=O)N2CCCC[C@H]2C(=O)O[C@H]([C@H](C)C[C@@H]2CC[C@@H](O)[C@H](OC)C2)CC(=O)[C@H](C)/C=C(\C)[C@@H](O)[C@@H](OC)C(=O)[C@H](C)C[C@H](C)/C=C/C=C/C=C/1C [rapamycin]
- LC3-II level: modest increase
